Test results as given in patent publication US20210214440A1.
Substitutions are numbered along the chain they refer to. These are yes or no findings as the source states them, for the method shown.

B1: CD8B248 (antibody, human IgG1, kappa, V domains shown)
VH: EVQLQQSGAELARPGASVKMSCKASGYTFTTYTMHWVKQRPGQGLEWIGYINPSSGYTKYNQKFTDKATLTADKSSSTAYMQLSSLTSEDSAVYYCARLWAYWGQGTLVTVSA
VL: DVVMTQTPLSLPVSLGDQASISCRSSQSLVHSSGNTYLHWYLQKPGQSPKLLIYKGSNRFSGVSDRFSGSGSGTDFTLKISRVEAEDLGVYFCSQSTHVPFTFGSGTKLEMKR
B2: CD8B254 (antibody, human IgG1, kappa, V domains shown)
VH: EVQLQQSGAELVKPGASVKMSCKTSGYTFSSYWITWVKQRPGQGLEWVGDIYPGSGSTNYNEKFKSKAALTVDTSSSTAFMQLNSLTSEDSAVYYCARESITTRITPFDHWGQGTTLTVSS
VL: B1 VL with M111I
B3: CD8B310 (antibody, human IgG1, kappa, V domains shown)
VH: QVQLKESGPGLVAPSQSLSITCTVSGFSLTNYAVHWVRQSPGKGLEWLGVIWTDGSTDYNAGFISRLSISKDNSKSQVFFKMNSLQADDTAIYYCARNNGYFPAFFAYWGQGTTVTVSS
VL: DVLMTQTPLSLPVSLGDQASISCRSSQTIVHSNGNTYLEWYLQKPGQSPKLLMYKVSNRFSGVPDRFGGSGSGTDFTLKISRVEAEDLGVYYCFQGSHAPFTFGSGTKLEIKR
B4: CD8B245 (antibody, human IgG1, kappa, V domains shown)
VH: EFQLQQSGGGLVQPGGSLSLSCAAPGFTFTDYYMSWVRQSPGKALEWLALSRNKGNGYTTEYSASVKGRFTISRDNSQSILYLQMNVLRAEDSATYYCARTVTGTLFYYALDYWGQGTTVTVSS
VL: DIQMTQSPASLSASVGETVTITCRASENIYSYLAWYQQKQGKSPQFLVYNAKTLAAGVPSRFSGSGSGTQFSLKINRLQPEDFGTYYCQHHYGTPLTFGDGTRLEIKR
B5: CD8B271 (antibody, human IgG1, kappa, V domains shown)
VH: DVQLQESGPGLVAPSQSLSITCTVSGFSLSIYSIHWVRQPPGKGLEWLGMIWGGGDTDYNSALKSRLSISKDNSESQVFLKMNSLQTDDTAMYYCARNPHYYGGTYEYFDVWGTGTTVTVSS
VL: DIQMTQTTSSLSASLGDRVTISCSASQGISNYLNWYQQKPDGTVKLLIYDTSILYSGVPSRFSGSGSGTDYSLTISNLEPEDVATYYCQQYSNLPYTFGSGTKLEIKR
B6: CD8B311 (antibody, human IgG1, kappa, V domains shown)
VH: QVQLKESGPELVKPGASVKLSCKASGYTFTSYWMHWVKQRPGQGLEWIGMIHPNSGSTNYNEKFKSKATLTVDKSSSTAYMQLSSLTSEDSAVYYCARCGYDGAWFAYWGQGTSVTVSS
VL: B5 VL with Y32C, Y49H, D50Y, I53S, Y55H, S65G, D70H, V83I, N93K, L94V
B7: CD8B251 (antibody, human IgG1, kappa, V domains shown)
VH: QVQLKGSGPGLVQPSQSLSITCTVSGFSLTTYAVHWVRQSPGKGLEWLGVIWSGGSTDYNAAFISRLSISKDNSKSQVFFKMNSLQADDTAIYYCARHSYYHYNAMDNWGQGTSVTVSS
VL: DIKMTQSQKFMSTTVGDRVSITCKASQNVGTAVAWYQQKPGQSPKLLIYSASNRYTGVPDRFTGSGSGTDFTLTISNMQSEDLADYFCQQYSSYPFTFGSGTKLEIKR
B8: CD8B269 (antibody, human IgG1, kappa, V domains shown)
VH: DVQLQESGPGLVKPSQSLSLTCSVTGYSITSGYYWNWIRQFPGNKLEWMGYISYDGSNNYNPSLKNRISITRDTSKNQFFLKLNSVTTEDTATYYCVRNHGDAMDHWGQGTTLTVSS
VL: DIVMTQSQKFMSTSVGDRVRVTCKASQNVGTDVAWYQQKPGQSPKALIYSASYRYSGVPDRFTGSGSGTDFTLTISDVQSEDLAEYFCQQYKSYPLTFGAGTKLELKR
B9: CD8B250 (antibody, human IgG1, kappa, V domains shown)
VH: B3 VH with T30S, A33V, G62A, T114L, S119A
VL: B8 VL with R20S, G30D, V33I, A34T, S76T, D77N, K92N, A100S, L106M
B10: CD8B319 (antibody, human IgG1, kappa, V domains shown)
VH: QVQLKESGPELKKPGETVKISCKASGYSFTAYYMHWVKQSPEKSLEWIGEINPSAGGTTYNQKFKAKATLTVDKSSSTAFIQLKSLTSEDSAVYYCARWTNPFDYWGQGTTLTVSS
VL: DIVMTQSQKFMSTTVGDRVSITCKASQNVGTAVAWYQQKPGQSPKLLIYSASYRYTGVPDRFTGSGSGTHFTLTISNIQSEDLADYFCQQYNNYLTFGSGTKLEIKR
B11: CD8B186 (antibody, human IgG1, kappa, V domains shown)
VH: QVQLQQSGAELAKPGASVKMSCKASGYIFTSYWMHWVKQRPGQGLEWIGNINPSSGYAVYNQKFKDKATLTADQSSSTAYIQLNSLTSEDSAVYYCARRVFYGDSWFAYWGQGTSVTVSS
VL: DVQMIQSPASLSASVGETVTITCRASGNIHNYLAWYQQKQGKSPQLLVYNAKTLADGVPSRFSGSGSGTQYSLKINSLQPEDFGSYYCQHFWSTTWTFGGGTKLEIKR
B12: CD8B192 (antibody, human IgG1, kappa, V domains shown)
VH: QVQLQQSGPVLVKPGASVKMSCKASGYTFTDYYMNWVMQSHGKSLEWIGVINPYNGGTTYNQRFTGKATLTVDKSSSTAYMELNSLTSEDSAVYYCARNYGAMDSWGQGTSVTVSS
VL: B11 VL with V2I, I5T, Y49S, S63G, S93I, T95P, W96P, G100A, K103R
B13: CD8B273 (antibody, human IgG1, kappa, V domains shown)
VH: QVQLQQSGAELVKPGASVKLSCKASGYTFTEYTIHWVKQRSGQGLEWIGWFYPGTGSIKYNEKFKDKATLTADKSSHTVYMELSKLTSEDSAVYFCARHEDNHYYDGNSWFAYWGQGTLVTVSA
VL: B11 VL with V2I, I5T, Y36F, P80A, T95P, W96Y, G100S
B14: CD8B362 (antibody, human IgG1, kappa, V domains shown)
VH: EVKLVESGAELVKPGASVKLSCTASGFNIKDTYMHWVKQRPEQGLEWIGRIDPANGHTKFDPKFQGKATITADTSSNTAYLQLSSLTSEDTAVYYCAIRFAYWGQGTLVTVSA
VL: DIQMTQSPSSLSASLGDRVSLTCRASHEISGYLSWLQQKPDGTFKRLIYAASTLDSGVPKRFSGSRSGSDYSLSISSLESEDFADYYCLQYSSYPYTFGSGTKLEMKR

biological target: Human CD8αα fused to human Fc (human); assay: SPR Biacore 8K, mAb captured, single cycle kinetics

binding, no binding (tested: 100 nM):
B1
B2
B3
B4
B5
B6
B7
B8
B9
B10
B11
B12
B13
B14
